The list is a part of this screen's results and no random one: it is rich in T/C values a quarter to a half above the control, in often repeated tests (any T/C) and in doses without a T/C. Other doses and runs of a compound stand elsewhere. T/C gives the treated animals as a percentage of the vehicle group. Some entries give survivors of the animals treated and no T/C: the source files T/C as zero there, which appears to mark a toxic dose or a test without result, not a measured value. Some doses without a T/C left all or most animals alive at the check, yet need not have been tolerated: survival well below the control is almost never listed, so the zero probably covers shortened survival too. Survivors were counted at the toxicity check, usually on the fifth day, unless a day is given; later deaths do not show. Schedules are NCI's codes, read here as Q, the interval in days (D) or hours (H), X, the number of doses. Some entries were tested several times; the results are listed from low to high. Some structures stand for samples that the source files as different forms (salt, stereo form or complex); doses refer to the form tested. Where survival is the endpoint, the PubChem record calls one and a half times the control and up active, and a quarter to a half above the control has no call in these data; cut-offs in other NCI protocols can differ.

The experiment has as its system L1210 leukemia ip in BDF1 mice, survival T/C. Description: NCI In Vivo Anticancer Drug Screen. Data for tumor model L1210 Leukemia (intraperitoneal) in B6D2F1 (BDF1) mice. The conditions noted are these: T/C endpoint: mean survival time, higher T/C = longer survival.
[1] abbreviates: dose: 200.0 mg/kg/injection, schedule: Q01DX009 (ip), vehicle: Klucel (hydroxypropylcellulose) (HPC).
Setting [2] is: dose: 400.0 mg/kg/injection, schedule: Q01DX009 (ip), vehicle: Klucel (hydroxypropylcellulose) (HPC).
Where [3] appears, read: dose: 100.0 mg/kg/injection, schedule: Q04DX002 (ip), vehicle: Klucel (hydroxypropylcellulose) (HPC).
Where [4] appears, read: dose: 200.0 mg/kg/injection, schedule: Q04DX002 (ip), vehicle: Klucel (hydroxypropylcellulose) (HPC).
[5] abbreviates: dose: 200.0 mg/kg/injection, schedule: Q01DX001 (ip), vehicle: saline.
[6] abbreviates: dose: 400.0 mg/kg/injection, schedule: Q01DX001 (ip), vehicle: saline.
[7] abbreviates: dose: 200.0 mg/kg/injection, schedule: Q01DX009 (ip), vehicle: gum acacia.
Setting [8] is: dose: 100.0 mg/kg/injection, schedule: Q04DX003 (ip), vehicle: saline.
Where [9] appears, read: dose: 150.0 mg/kg/injection, schedule: Q01DX001 (ip), vehicle: saline.
Where [10] appears, read: dose: 300.0 mg/kg/injection, schedule: Q01DX001 (ip), vehicle: saline.
Where [11] appears, read: dose: 200.0 mg/kg/injection, schedule: Q04DX003 (ip), vehicle: saline.
Where [12] appears, read: dose: 400.0 mg/kg/injection, schedule: Q04DX003 (ip), vehicle: saline.

As to `CC(C)c1oc(=O)cc2c1C(O)C1OC(=O)C3(C)C(O)C4OC4C2(C)C13` (configuration not stated), the survivor count under setting [1] was 3 of 6 and the survivor count under setting [2] was 0 of 6.

Take `N/C(=N\O)c1cccnc1`: the survivor count (dose: 400.0 mg/kg/injection, schedule: Q01DX009 (ip), vehicle: saline with Tween-80) is given as 0 of 6 and the survivor count (dose: 400.0 mg/kg/injection, schedule: Q04DX003 (ip), vehicle: water) is listed as 3 of 6.

With `CCC(C)c1cc([N+](=O)[O-])cc([N+](=O)[O-])c1O` (configuration not stated), the survivor count runs as follows: (dose: 100.0 mg/kg/injection, schedule: Q04DX003 (ip), vehicle: Klucel (hydroxypropylcellulose) (HPC)) 1 of 6; (dose: 200.0 mg/kg/injection, schedule: Q04DX003 (ip), vehicle: Klucel (hydroxypropylcellulose) (HPC)) 0 of 6; (dose: 400.0 mg/kg/injection, schedule: Q04DX003 (ip), vehicle: Klucel (hydroxypropylcellulose) (HPC)) 0 of 6.

As to `[NH-]C(Cc1ccccc1)C(=O)O.[NH-]C(Cc1ccccc1)C(=O)O.[Ni+2]` (configuration not stated), the survivor count reads like this: (dose: 100.0 mg/kg/injection, schedule: Q04DX003 (ip), vehicle: saline with Tween-80) 3 of 3; (dose: 200.0 mg/kg/injection, schedule: Q04DX003 (ip), vehicle: saline with Tween-80) 1 of 3; (dose: 400.0 mg/kg/injection, schedule: Q04DX003 (ip), vehicle: saline with Tween-80) 0 of 3.

Regarding `COC(=O)c1ccccc1C[P+](c1ccccc1)(c1ccccc1)c1ccccc1`, the survivor count is, setting by setting: (dose: 12.5 mg/kg/injection, schedule: Q01DX001 (ip), vehicle: saline with Tween-80) 3 of 6; (dose: 12.5 mg/kg/injection, schedule: Q01DX009 (ip), vehicle: saline with Tween-80) 1 of 3 and 2 of 6; (dose: 12.5 mg/kg/injection, schedule: Q01DX009 (ip), vehicle: saline) 2 of 3 and 4 of 6; (dose: 25.0 mg/kg/injection, schedule: Q01DX009 (ip), vehicle: saline with Tween-80) 3 of 6 and 2 of 3; (dose: 50.0 mg/kg/injection, schedule: Q04DX002 (ip), vehicle: saline with Tween-80) 4 of 6 and 3 of 3; under setting [3], 0 of 3 and 0 of 6. The survivor count runs as follows: (dose: 100.0 mg/kg/injection, schedule: Q04DX002 (ip), vehicle: saline with Tween-80) 0 of 3 and 0 of 6; under setting [4], 0 of 3 and 0 of 6; (dose: 400.0 mg/kg/injection, schedule: Q04DX002 (ip), vehicle: Klucel (hydroxypropylcellulose) (HPC)) 0 of 3 and 0 of 6.

Regarding `CN(C)C1=C(Cl)C(=O)c2ccccc2C1=O`, the survivor count reads like this: under setting [5], 2 of 4; under setting [6], 0 of 4.

Turning to `Cc1cc(N=Nc2ccc(N(C)C)cc2)cc(C)[n+]1[O-]`, the survivor count under setting [2] is on record as 2 of 6.

As to `O=C(c1ccccn1)c1nnn2ccccc12`, the survivor count (dose: 400.0 mg/kg/injection, schedule: Q04DX002 (ip), vehicle: saline with Tween-80) is recorded as 1 of 3.

For the compound `Brc1cnc[nH]1`, the survivor count (dose: 200.0 mg/kg/injection, schedule: Q01DX009 (ip), vehicle: water) is given as 6 of 6.

On to `COc1ccc(C)cc1NC(=O)OCCSc1ccc(Cl)cc1`, for which the T/C runs as follows: (dose: 100.0 mg/kg/injection, schedule: Q01DX009 (ip), vehicle: gum acacia) 93, 94, 95, 99 % of control; under setting [7], 88 and 97 % of control. Further, the survivor count was 3 of 3 and 6 of 6 under setting [7]; 3 of 3 (dose: 200.0 mg/kg/injection, schedule: Q04DX002 (ip), vehicle: gum acacia).

Regarding `CCC(=O)Nc1cccc(C)c1C`, the survivor count under setting [2] is listed as 5 of 6.

Take `NNC(=O)c1ccc(Cl)cc1Nc1ccc(F)cc1`: the survivor count is 2 of 6 under setting [8]; 0 of 6 (dose: 200.0 mg/kg/injection, schedule: Q01DX001 (ip), vehicle: saline sonified); 0 of 6 (dose: 400.0 mg/kg/injection, schedule: Q01DX001 (ip), vehicle: saline sonified).

For `CN1CCCC1c1cccc([N+](=O)[O-])c1` (configuration not stated), the survivor count (dose: 200.0 mg/kg/injection, schedule: Q01DX001 (ip), vehicle: acetone) is reported as 0 of 6 and the survivor count (dose: 400.0 mg/kg/injection, schedule: Q01DX001 (ip), vehicle: acetone) was 0 of 6.

Consider `Cc1ccc(C[N+](C)(C)C)cc1`, for which the survivor count by setting is: (dose: 75.0 mg/kg/injection, schedule: Q01DX001 (ip), vehicle: saline) 2 of 6; under setting [9], 0 of 6; under setting [10], 0 of 6.

With `O=C(O)CNc1nc(Cl)nc(NCC(=O)O)n1`, under setting [1], the survivor count is 3 of 3.

Turning to `O=C1C(Cl)=C(NCCCCCCNC2=C(Cl)C(=O)c3ccccc3C2=O)C(=O)c2ccccc21`, the survivor count is reported as 2 of 4 under setting [5] and 0 of 4 under setting [6].

`c1ccc(CCN2CCC(CCc3c[nH]c4ccccc34)CC2)cc1`: the survivor count is, setting by setting: under setting [5], 0 of 4; under setting [6], 0 of 4; (dose: 600.0 mg/kg/injection, schedule: Q01DX001 (ip), vehicle: saline) 1 of 4; (dose: 800.0 mg/kg/injection, schedule: Q01DX001 (ip), vehicle: saline) 0 of 4.

Regarding `C[C@@H]1O[C@@H](O[C@H]2CC[C@]3(C=O)[C@H]4CC[C@]5(C)[C@@H](c6ccc(=O)oc6)CC[C@]5(O)[C@@H]4CC[C@]3(O)C2)[C@H](O)[C@H](O)[C@H]1O[C@@H]1O[C@H](CO)[C@@H](O)[C@H](O)[C@H]1O`, the survivor count was 0 of 4 (dose: 20.0 mg/kg/injection, schedule: Q01DX001 (ip), vehicle: carboxymethylcellulose (CMC)) and 0 of 4 (dose: 40.0 mg/kg/injection, schedule: Q01DX001 (ip), vehicle: carboxymethylcellulose (CMC)).

As to `CNC(=O)Oc1ccc(Br)cc1Br`, under setting [2], the survivor count is on record as 2 of 6.

For the compound `COC12CCCC1S(=O)(=O)C2` (configuration not stated), the survivor count (dose: 100.0 mg/kg/injection, schedule: Q01DX009 (ip), vehicle: saline with Tween-80) is recorded as 3 of 6.

As to `CC1C[N-]CC(C)C1.[CH-]=C(C)C.[Cl][Pt+2][Cl]` (configuration not stated), the survivor count by setting is: under setting [11], 1 of 6; under setting [12], 0 of 6.

Take `C=CCOc1c(Br)cc(Br)cc1Br`: the survivor count is given as 3 of 3 (dose: 50.0 mg/kg/injection, schedule: Q04DX002 (ip), vehicle: Klucel (hydroxypropylcellulose) (HPC)); 3 of 3 under setting [3]; 3 of 3 under setting [4].

As to `O=C([O-])c1ccccc1[S+](c1ccccc1)c1ccccc1`, the T/C (dose: 37.0 mg/kg/injection, schedule: Q04DX002 (ip), vehicle: saline with Tween-80) is 129 % of control. The survivor count (dose: 75.0 mg/kg/injection, schedule: Q04DX002 (ip), vehicle: saline with Tween-80) is on record as 2 of 3; the survivor count (dose: 150.0 mg/kg/injection, schedule: Q04DX002 (ip), vehicle: saline with Tween-80) is given as 0 of 3; the survivor count (dose: 300.0 mg/kg/injection, schedule: Q04DX002 (ip), vehicle: saline with Tween-80) was 0 of 3.

As for `C[N+](C)(C)CCC(=O)c1ccccc1`, the survivor count is, setting by setting: under setting [8], 1 of 6; under setting [9], 2 of 6; under setting [11], 0 of 6; under setting [10], 1 of 6; under setting [12], 0 of 6.

These data come from PubChem BioAssay AID248 (DTP/NCI, 2004).
